Test results reported in publication PMC9596381.

The chains behind the UniProt entries cited, without tags or fusion partners. Where a name states a change or a piece, a line headed by the entry shows the natural chain unless it says otherwise. Residues count along the entry.
UniProt Q8K1S3: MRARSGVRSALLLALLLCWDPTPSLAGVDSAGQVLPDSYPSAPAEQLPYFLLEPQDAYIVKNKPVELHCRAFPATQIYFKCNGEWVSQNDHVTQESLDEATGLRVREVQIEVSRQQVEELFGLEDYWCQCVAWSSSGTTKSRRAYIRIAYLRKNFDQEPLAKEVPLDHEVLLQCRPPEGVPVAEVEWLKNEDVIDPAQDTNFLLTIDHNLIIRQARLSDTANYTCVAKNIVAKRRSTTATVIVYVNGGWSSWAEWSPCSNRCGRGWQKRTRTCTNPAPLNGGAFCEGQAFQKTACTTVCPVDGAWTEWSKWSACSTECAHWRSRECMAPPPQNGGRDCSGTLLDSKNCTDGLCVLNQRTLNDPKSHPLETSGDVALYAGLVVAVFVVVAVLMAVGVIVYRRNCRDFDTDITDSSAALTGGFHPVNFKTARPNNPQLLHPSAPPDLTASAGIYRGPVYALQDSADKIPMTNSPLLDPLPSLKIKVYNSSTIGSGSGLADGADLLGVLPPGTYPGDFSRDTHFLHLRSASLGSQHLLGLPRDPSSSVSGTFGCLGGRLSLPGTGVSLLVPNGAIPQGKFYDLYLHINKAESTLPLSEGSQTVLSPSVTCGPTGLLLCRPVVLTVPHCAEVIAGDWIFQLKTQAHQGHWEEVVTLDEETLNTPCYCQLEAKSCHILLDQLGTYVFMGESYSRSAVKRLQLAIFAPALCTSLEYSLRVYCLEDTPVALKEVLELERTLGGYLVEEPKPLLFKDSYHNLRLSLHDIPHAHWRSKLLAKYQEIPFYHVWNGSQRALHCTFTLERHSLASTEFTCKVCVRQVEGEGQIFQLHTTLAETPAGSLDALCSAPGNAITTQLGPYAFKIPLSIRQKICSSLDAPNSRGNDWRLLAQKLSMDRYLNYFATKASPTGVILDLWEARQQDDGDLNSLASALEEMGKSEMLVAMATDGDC
UniProt Q8K1S4: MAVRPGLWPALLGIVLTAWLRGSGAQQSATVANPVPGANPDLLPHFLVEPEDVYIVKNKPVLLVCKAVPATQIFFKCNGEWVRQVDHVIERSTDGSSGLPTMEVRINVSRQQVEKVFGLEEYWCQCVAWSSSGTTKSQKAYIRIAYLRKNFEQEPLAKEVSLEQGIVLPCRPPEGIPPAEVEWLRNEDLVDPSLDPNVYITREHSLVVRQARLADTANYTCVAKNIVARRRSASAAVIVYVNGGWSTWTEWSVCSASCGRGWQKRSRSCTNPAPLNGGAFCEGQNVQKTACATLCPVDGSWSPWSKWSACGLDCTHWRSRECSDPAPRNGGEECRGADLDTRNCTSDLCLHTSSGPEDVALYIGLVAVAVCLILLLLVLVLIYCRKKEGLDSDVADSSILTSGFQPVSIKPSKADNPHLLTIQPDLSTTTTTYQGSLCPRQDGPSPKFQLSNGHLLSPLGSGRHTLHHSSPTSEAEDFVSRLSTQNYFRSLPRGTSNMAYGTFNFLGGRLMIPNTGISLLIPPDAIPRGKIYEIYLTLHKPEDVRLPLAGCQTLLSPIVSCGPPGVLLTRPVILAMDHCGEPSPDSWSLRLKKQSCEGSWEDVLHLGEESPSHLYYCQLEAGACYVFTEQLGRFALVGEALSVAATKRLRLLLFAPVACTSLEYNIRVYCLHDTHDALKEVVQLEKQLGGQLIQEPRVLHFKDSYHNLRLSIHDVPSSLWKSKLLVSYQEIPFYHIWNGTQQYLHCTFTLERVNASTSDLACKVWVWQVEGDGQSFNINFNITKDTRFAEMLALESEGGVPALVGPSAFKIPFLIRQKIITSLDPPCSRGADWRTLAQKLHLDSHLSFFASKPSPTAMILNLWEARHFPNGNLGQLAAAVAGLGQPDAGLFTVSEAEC
UniProt O08747: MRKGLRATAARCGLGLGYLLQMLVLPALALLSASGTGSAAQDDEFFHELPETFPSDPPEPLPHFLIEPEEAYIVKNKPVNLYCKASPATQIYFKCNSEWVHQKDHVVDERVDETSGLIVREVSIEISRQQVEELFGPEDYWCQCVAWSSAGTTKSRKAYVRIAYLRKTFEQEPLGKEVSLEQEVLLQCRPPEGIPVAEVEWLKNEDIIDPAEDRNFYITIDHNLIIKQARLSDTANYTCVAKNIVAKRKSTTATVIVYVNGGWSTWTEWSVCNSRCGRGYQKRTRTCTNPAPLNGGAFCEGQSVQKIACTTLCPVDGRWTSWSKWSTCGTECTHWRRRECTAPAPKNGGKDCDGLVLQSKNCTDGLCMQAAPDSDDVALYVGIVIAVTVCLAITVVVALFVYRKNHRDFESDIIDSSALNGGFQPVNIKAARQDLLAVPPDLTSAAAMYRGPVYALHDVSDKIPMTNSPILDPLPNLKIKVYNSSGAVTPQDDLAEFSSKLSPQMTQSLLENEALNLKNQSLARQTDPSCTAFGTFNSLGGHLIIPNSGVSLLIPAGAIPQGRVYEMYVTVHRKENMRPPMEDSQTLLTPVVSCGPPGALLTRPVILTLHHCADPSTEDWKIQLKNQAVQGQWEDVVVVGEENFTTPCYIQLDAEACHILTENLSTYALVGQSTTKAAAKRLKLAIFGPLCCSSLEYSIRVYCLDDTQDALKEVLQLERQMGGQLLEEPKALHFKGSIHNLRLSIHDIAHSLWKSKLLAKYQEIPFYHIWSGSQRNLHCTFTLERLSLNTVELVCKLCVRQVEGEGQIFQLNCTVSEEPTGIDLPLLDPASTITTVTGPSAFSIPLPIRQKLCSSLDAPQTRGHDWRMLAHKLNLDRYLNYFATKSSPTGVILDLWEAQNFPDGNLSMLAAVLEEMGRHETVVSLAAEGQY
UniProt P51654, residues 32-483: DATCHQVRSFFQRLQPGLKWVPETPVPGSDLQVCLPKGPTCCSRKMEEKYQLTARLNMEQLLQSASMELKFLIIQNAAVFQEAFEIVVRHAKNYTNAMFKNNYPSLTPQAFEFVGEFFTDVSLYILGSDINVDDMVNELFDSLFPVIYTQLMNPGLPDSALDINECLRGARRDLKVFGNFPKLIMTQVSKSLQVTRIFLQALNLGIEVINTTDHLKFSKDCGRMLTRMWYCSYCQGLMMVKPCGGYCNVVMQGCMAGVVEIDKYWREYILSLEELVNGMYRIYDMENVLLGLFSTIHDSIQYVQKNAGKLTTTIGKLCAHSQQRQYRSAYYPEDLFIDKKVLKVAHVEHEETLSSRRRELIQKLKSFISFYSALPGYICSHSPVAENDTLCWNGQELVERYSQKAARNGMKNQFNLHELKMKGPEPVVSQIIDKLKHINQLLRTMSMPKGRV

Tests used:
[1] = target: Unc5^GU mutant expressed on cells (cell-based binding assay of Figure 3B) (UniProt Q8K1S3); test: cell-based binding assay (fluorescence microscopy); HEK293T cells expressing mVenus-tagged receptor; 0.5 ug purified His-tagged protein pre-clustered with anti-His, 60 min on ice; anti-mouse-Cy3; co-localisation area quantified; only the binder purified
[2] = target: Unc5A^GU ectodomain mutant (mUnc5A^ectoGU) (mouse) (UniProt Q8K1S4); test: SPR; equilibrium binding at 25 C, Biacore T200; one partner biotinylated at a C-terminal Avi-tag on a streptavidin-coated CM5 chip; analyte in 2-fold dilution series; PBS or 20 mM Tris, 200 mM NaCl, 0.005% polysorbate 20, pH 7.5; apparent KD from a 1:1 model, indicative only; both purified
[3] = target: Unc5B^GU ectodomain mutant (mUnc5B^ectoGU) (mouse) (UniProt Q8K1S3); test: as above
[4] = target: Unc5C^GU ectodomain mutant (UniProt O08747); test: as above

binding [1]: no binding
binding [2]: no binding
binding [3]: no binding
binding [4]: no binding
Substance: human glypican-3 core domain, residues 32-483 (hGPC3^core) (from UniProt P51654 32-483) (domain or fragment)

Results are given in words; binding and its absence hold for the method and conditions named.
